The list shows a part of the results. Further columns of the screen follow, without active or inactive calls. The list favours compounds with an active or inconclusive main result. The note in brackets gives the kind of curve behind each potency; many fits are weak.
Assay: qHTS Assay for Lipid Storage Modulators in Drosophila S3 Cells;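 as to cell number change: cells counted by Cell Tracker Red CMTPX staining in the red channel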
Conditions: BODIPY lipid droplet fluorescence, 18-24 h; for cell number change: measured here: cell count max response, cells fed with added oleic acid
Summary of the method: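 Drosophila S3 cells loaded with oleic acid (400 uM, as added) and compounds at several concentrations; lipid droplets imaged by 488-nm laser-scanning cytometry, 500–530 nm intensity and object ratio to cell channel. Percent activity normalized to 20 uM Triacsin C.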

[1] = measured here: lipid fluorescence (Fed channel) AC50, cells fed with added oleic acid
[2] = measured here: cell number channel AC50, cells fed with added oleic acid

With `CCC(C(=O)O)n1nnc(-c2ccc(OCc3ccccc3)c(OC)c2)n1` (stereo not given) the cell number change was -12.2% and the AC50 [1] was 2.91 µM [rising, partial curve].
For `CC(Sc1nc(N)c(NC(=O)c2ccc(Br)o2)c(=O)[nH]1)C(=O)O` (stereo not given), the cell number change was -6.52% and the AC50 [2] was 0.00461 µM [falling, full curve, poor fit].
With `O=C(Cc1cc(=O)[nH][nH]1)N/N=C/C=C/c1ccccc1` the cell number change was -12.1% and the AC50 [1] was 0.146 µM [falling, full curve, poor fit].
In the case of `COc1ccc(CNC(=O)C(C)N2C(=O)NC(c3ccccc3)(c3ccccc3)C2=O)cc1` (stereo not given), the cell number change is reported as -1.91%, the AC50 [2] is reported as 0.517 µM [falling, single point] and the AC50 [1] is reported as 5.17 µM [falling, full curve].
With `CN1CCO/C1=C(\C(Cl)=C(Cl)Cl)[N+](=O)[O-]` the cell number change was 31.3% and the AC50 [1] was 0.206 µM [rising, single point].
For `O=C(c1ccc([N+](=O)[O-])s1)N1CCCc2ccccc21`, the cell number change was 11.5% and the AC50 [1] was 5.17 µM [rising, single point].
For `CC(=O)Nc1c(O)nc(SCC(=O)Nc2c(C)cccc2C)[nH]c1=O`, the cell number change was -6.46%.
With `Cc1c(C(=O)O)cccc1-c1ccc(/C=C2/NC(=O)N(c3ccccc3)C2=O)o1` the cell number change was 7.92% and the AC50 [1] was 0.0103 µM [rising, full curve, poor fit].
In the case of `Nc1nc(SCC(=O)NCCCO)nc2sc3c(c12)CCC3`, the cell number change is reported as -18% and the AC50 [1] is reported as 0.0231 µM [rising, full curve, poor fit].
For `COc1cc(C2C(C(=O)c3ccc(C)o3)=C(O)C(=O)N2c2cc(C)on2)ccc1OCc1ccccc1` (stereo not given), the cell number change was -2.82% and the AC50 [1] was 29.1 µM [falling, single point].
In the case of `CCN(CC(=O)Nc1c(F)cccc1F)C(=O)c1ccc(S(=O)(=O)NCc2ccco2)cc1`, the cell number change is reported as -23.1% and the AC50 [1] is reported as 29.1 µM [rising, single point].
In the case of `COc1ccc(NC(=O)c2csc3c2CCCC3)cc1`, the AC50 [2] is reported as 1.03 µM [rising, full curve, poor fit].
With `O=C(CBr)c1ccc([N+](=O)[O-])c(CS(=O)(=O)c2ccc(Cl)cc2)c1` the cell number change was -51%, the AC50 [2] was 29.1 µM [falling, single point] and the AC50 [1] was 29.1 µM [falling, single point].
`COc1cc(OC)nc(NC(=O)CN2CCN(c3ccc(F)cc3)CC2)n1` showed a cell number change of 14.8%.
With `CCn1c(/C=C/c2ccccc2[N+](=O)[O-])nc2ccccc2c1=O` the cell number change was 41.9%, the AC50 [2] was 0.461 µM [rising, full curve, poor fit] and the AC50 [1] was 29.1 µM [rising, partial curve, poor fit].
With `COc1ccc(CNC(=O)CCCNS(=O)(=O)c2cccc3nonc23)cc1` the cell number change was -1.42% and the AC50 [1] was 29.1 µM [rising, single point].
In the case of `Cc1ccc(C(=O)Nc2cccc(C(=O)N3CCN(C)CC3)c2)cc1`, the cell number change is reported as -13.5%.
In the case of `O=C1CN(C(=O)COc2ccc([N+](=O)[O-])cc2Cl)c2ccccc2N1`, the cell number change is reported as -51.1%, the AC50 [2] is reported as 23.1 µM [falling, partial curve] and the AC50 [1] is reported as 14.6 µM [falling, partial curve].
For `Cc1nc(SCCC(C)C)c([N+](=O)[O-])[nH]1`, the cell number change was 2.47% and the AC50 [1] was 0.731 µM [falling, full curve].
Work on `Oc1ccc(CN2CCc3ccccc3C2)c2cccnc12` yielded a cell number change of -22.3%.
`COc1cccc(CNC(=O)C(C)n2ccc3cc(S(=O)(=O)N4CCCCCC4)ccc32)c1` (stereo not given) gave a cell number change of -3.82%.
Work on `Cc1ccc(C)c(S(=O)(=O)NCCOC(=O)Nc2sc(=S)n(C)c2C)c1` yielded a cell number change of -12.1%.
For `COc1ccc(C)cc1NC(=O)C1CCN(C(=O)C2CC(=O)N(c3ccc(C)cc3)C2)CC1` (stereo not given), the cell number change was 25.6% and the AC50 [1] was 29.1 µM [rising, partial curve, poor fit].
In the case of `CCc1ccc(N2CCN(S(=O)(=O)CC34CCC(CC3=O)C4(C)C)CC2)cc1` (stereo not given), the cell number change is reported as -4.56%, the AC50 [2] is reported as 0.82 µM [rising, single point] and the AC50 [1] is reported as 0.58 µM [rising, single point].
With `Cc1ccc(S(=O)(=O)N(CC(O)CN2C(=O)NC(C)(C)C2=O)c2cccc([N+](=O)[O-])c2)cc1` (stereo not given) the cell number change was 12.4%.
In the case of `O=C(CCC(=O)N(CC(=O)NC1CCCC1)Cc1ccc2c(c1)OCO2)Nc1ccccn1`, the cell number change is reported as -3.59%.
With `C=CCNc1sc(C(=O)c2ccc(Br)s2)c(N)c1C#N` the cell number change was 84.6%, the AC50 [2] was 1.3 µM [rising, full curve] and the AC50 [1] was 1.03 µM [rising, full curve].
In the case of `COc1ccc(C(=O)Nc2ccccc2-c2ccccc2)cc1Cl`, the cell number change is reported as 4.95% and the AC50 [1] is reported as 0.092 µM [rising, partial curve, poor fit].
For `CC(NC(=O)C(=O)NN=C1CCCC1)c1ccccc1` (stereo not given), the cell number change was 7.35% and the AC50 [1] was 0.116 µM [falling, full curve, poor fit].

From PubChem BioAssay AID2685 (National Center for Advancing Translational Sciences (NCATS), 2010)
